{"sequences": {"note": "Chains of the proteins cited; added tags and fusions are not shown.", "UniProt Q61188, whole entry": "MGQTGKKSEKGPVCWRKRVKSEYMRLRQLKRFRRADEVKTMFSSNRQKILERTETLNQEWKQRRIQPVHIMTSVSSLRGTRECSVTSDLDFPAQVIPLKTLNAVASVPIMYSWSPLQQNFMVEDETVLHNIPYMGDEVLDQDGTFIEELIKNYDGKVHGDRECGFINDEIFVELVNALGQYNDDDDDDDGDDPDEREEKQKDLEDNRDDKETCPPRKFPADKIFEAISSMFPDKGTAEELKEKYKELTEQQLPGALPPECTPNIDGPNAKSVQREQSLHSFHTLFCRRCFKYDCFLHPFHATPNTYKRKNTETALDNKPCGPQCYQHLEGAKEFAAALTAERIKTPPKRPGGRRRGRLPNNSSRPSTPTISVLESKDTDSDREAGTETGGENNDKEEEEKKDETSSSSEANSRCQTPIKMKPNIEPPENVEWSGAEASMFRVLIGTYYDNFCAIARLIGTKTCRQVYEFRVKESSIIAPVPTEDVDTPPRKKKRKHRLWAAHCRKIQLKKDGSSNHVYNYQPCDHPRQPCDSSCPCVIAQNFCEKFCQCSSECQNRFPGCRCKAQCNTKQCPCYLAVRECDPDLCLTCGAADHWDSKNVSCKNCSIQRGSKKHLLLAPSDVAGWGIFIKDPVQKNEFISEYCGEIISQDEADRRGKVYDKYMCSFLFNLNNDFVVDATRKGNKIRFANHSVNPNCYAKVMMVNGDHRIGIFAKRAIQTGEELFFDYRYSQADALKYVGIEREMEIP"}, "source": "ChEMBL document CHEMBL5674883", "about": "“The Heterochromatin Landscape in Migrating Cells and the Importance of H3K27me3 for Associated Transcriptome Alterations” (Cells, 2018)", "type_in_all_cases": "cell-based", "key": {"[1]": {"molecular_target": "T1, RNA polymerase II (Mus musculus) (UniProt P08775+Q8CFI7+P97760+A0A3Q4L2S8+Q80UW8+P61219+P62488+Q923G2+P60898+O08740+Q63871+P62876)", "assay": "Inhibition of RNA polymerase II in mouse B16-F1 migrating cells assessed as fold change in P4ha2-RNA stability at 0.1 mM measured by ChIP-seq analysis relative to control cells"}, "[2]": {"molecular_target": "T1, RNA polymerase II (Mus musculus)", "assay": "Inhibition of RNA polymerase II in mouse B16-F1 migrating cells assessed as fold change in Mbd3-RNA stability at 0.1 mM measured by ChIP-seq analysis relative to control cells"}, "[3]": {"molecular_target": "T1, RNA polymerase II (Mus musculus)", "assay": "Inhibition of RNA polymerase II in mouse B16-F1 migrating cells assessed as fold change in Mrpl30-RNA stability at 0.1 mM measured by ChIP-seq analysis relative to control cells"}, "[4]": {"molecular_target": "T1, RNA polymerase II (Mus musculus)", "assay": "Inhibition of RNA polymerase II in mouse B16-F1 migrating cells assessed as fold change in Fbxl3-RNA stability at 0.1 mM measured by ChIP-seq analysis relative to control cells"}, "[5]": {"molecular_target": "T1, RNA polymerase II (Mus musculus)", "assay": "Inhibition of RNA polymerase II in mouse B16-F1 migrating cells assessed as fold change in Eif4e2-RNA stability at 0.1 mM measured by ChIP-seq analysis relative to control cells"}, "[6]": {"molecular_target": "T1, RNA polymerase II (Mus musculus)", "assay": "Inhibition of RNA polymerase II in mouse B16-F1 migrating cells assessed as fold change in Rap1a-RNA stability at 0.1 mM measured by ChIP-seq analysis relative to control cells"}, "[7]": {"molecular_target": "T1, RNA polymerase II (Mus musculus)", "assay": "Inhibition of RNA polymerase II in mouse B16-F1 migrating cells assessed as fold change in Timm13-RNA stability at 0.1 mM measured by ChIP-seq analysis relative to control cells"}, "[8]": {"molecular_target": "T1, RNA polymerase II (Mus musculus)", "assay": "Inhibition of RNA polymerase II in mouse B16-F1 migrating cells assessed as fold change in Rps11-RNA stability at 0.1 mM measured by ChIP-seq analysis relative to control cells"}, "[9]": {"molecular_target": "T1, RNA polymerase II (Mus musculus)", "assay": "Inhibition of RNA polymerase II in mouse B16-F1 migrating cells assessed as fold change in Mtdh-RNA stability at 0.1 mM measured by ChIP-seq analysis relative to control cells"}, "[10]": {"molecular_target": "T1, RNA polymerase II (Mus musculus)", "assay": "Inhibition of RNA polymerase II in mouse B16-F1 migrating cells assessed as fold change in Bzw1-RNA stability at 0.1 mM measured by ChIP-seq analysis relative to control cells"}, "[11]": {"molecular_target": "T1, RNA polymerase II (Mus musculus)", "assay": "Inhibition of RNA polymerase II in mouse B16-F1 migrating cells assessed as fold change in Ppip5k2-RNA stability at 0.1 mM measured by ChIP-seq analysis relative to control cells"}, "[12]": {"molecular_target": "T1, RNA polymerase II (Mus musculus)", "assay": "Inhibition of RNA polymerase II in mouse B16-F1 migrating cells assessed as fold change in Bbc3-RNA stability at 0.1 mM measured by ChIP-seq analysis relative to control cells"}, "[13]": {"molecular_target": "T1, RNA polymerase II (Mus musculus)", "assay": "Inhibition of RNA polymerase II in mouse B16-F1 migrating cells assessed as fold change in Hyls1-RNA stability at 0.1 mM measured by ChIP-seq analysis relative to control cells"}, "[14]": {"molecular_target": "T1, RNA polymerase II (Mus musculus)", "assay": "Inhibition of RNA polymerase II in mouse B16-F1 migrating cells assessed as fold change in Pnpt1-RNA stability at 0.1 mM measured by ChIP-seq analysis relative to control cells"}, "[15]": {"molecular_target": "T1, RNA polymerase II (Mus musculus)", "assay": "Inhibition of RNA polymerase II in mouse B16-F1 migrating cells assessed as fold change in Cep57l1-RNA stability at 0.1 mM measured by ChIP-seq analysis relative to control cells"}, "[16]": {"molecular_target": "T1, RNA polymerase II (Mus musculus)", "assay": "Inhibition of RNA polymerase II in mouse B16-F1 migrating cells assessed as fold change in Mif-RNA stability at 0.1 mM measured by ChIP-seq analysis relative to control cells"}, "[17]": {"molecular_target": "T1, RNA polymerase II (Mus musculus)", "assay": "Inhibition of RNA polymerase II in mouse B16-F1 migrating cells assessed as fold change in Smc2-RNA stability at 0.1 mM measured by ChIP-seq analysis relative to control cells"}, "[18]": {"molecular_target": "T1, RNA polymerase II (Mus musculus)", "assay": "Inhibition of RNA polymerase II in mouse B16-F1 migrating cells assessed as fold change in Kansl1l-RNA stability at 0.1 mM measured by ChIP-seq analysis relative to control cells"}, "[19]": {"molecular_target": "T1, RNA polymerase II (Mus musculus)", "assay": "Inhibition of RNA polymerase II in mouse B16-F1 migrating cells assessed as fold change in Rex1bd-RNA stability at 0.1 mM measured by ChIP-seq analysis relative to control cells"}, "[20]": {"molecular_target": "Histone-lysine N-methyltransferase EZH2 (Mus musculus) (UniProt Q61188)", "assay": "Inhibition of EZH2 in mouse B16-F1 migrating cells assessed as fold change in H3K27me3-buffered regulated Gprc5a-mRNA expression at 3 uM measured by ChIP-seq analysis relative to control cells"}, "[21]": {"molecular_target": "Histone-lysine N-methyltransferase EZH2 (Mus musculus) (UniProt Q61188)", "assay": "Inhibition of EZH2 in mouse B16-F1 migrating cells assessed as fold change in H3K27me3-dependent regulated Glt1d1-mRNA expression at 3 uM measured by ChIP-seq analysis relative to control cells"}, "[22]": {"molecular_target": "Histone-lysine N-methyltransferase EZH2 (Mus musculus) (UniProt Q61188)", "assay": "Inhibition of EZH2 in mouse B16-F1 migrating cells assessed as fold change in H3K27me3-buffered regulated Avpi1-mRNA expression at 3 uM measured by ChIP-seq analysis relative to control cells"}, "[23]": {"molecular_target": "Histone-lysine N-methyltransferase EZH2 (Mus musculus) (UniProt Q61188)", "assay": "Inhibition of EZH2 in mouse B16-F1 migrating cells assessed as fold change in H3K27me3-independent regulated Spsb2-mRNA expression at 3 uM measured by ChIP-seq analysis relative to control cells"}, "[24]": {"molecular_target": "Histone-lysine N-methyltransferase EZH2 (Mus musculus) (UniProt Q61188)", "assay": "Inhibition of EZH2 in mouse B16-F1 migrating cells assessed as fold change in H3K27me3-buffered regulated Ftl1-mRNA expression at 3 uM measured by ChIP-seq analysis relative to control cells"}, "[25]": {"molecular_target": "Histone-lysine N-methyltransferase EZH2 (Mus musculus) (UniProt Q61188)", "assay": "Inhibition of EZH2 in mouse B16-F1 migrating cells assessed as fold change in H3K27me3-buffered regulated Anxa2-mRNA expression at 3 uM measured by ChIP-seq analysis relative to control cells"}, "[26]": {"molecular_target": "Histone-lysine N-methyltransferase EZH2 (Mus musculus) (UniProt Q61188)", "assay": "Inhibition of EZH2 in mouse B16-F1 migrating cells assessed as fold change in H3K27me3-buffered regulated Uvssa-mRNA expression at 3 uM measured by ChIP-seq analysis relative to control cells"}, "[27]": {"molecular_target": "Histone-lysine N-methyltransferase EZH2 (Mus musculus) (UniProt Q61188)", "assay": "Inhibition of EZH2 in mouse B16-F1 migrating cells assessed as fold change in H3K27me3-buffered regulated Sil1-mRNA expression at 3 uM measured by ChIP-seq analysis relative to control cells"}, "[28]": {"molecular_target": "Histone-lysine N-methyltransferase EZH2 (Mus musculus) (UniProt Q61188)", "assay": "Inhibition of EZH2 in mouse B16-F1 migrating cells assessed as fold change in H3K27me3-buffered regulated Ldlr-mRNA expression at 3 uM measured by ChIP-seq analysis relative to control cells"}, "[29]": {"molecular_target": "Histone-lysine N-methyltransferase EZH2 (Mus musculus) (UniProt Q61188)", "assay": "Inhibition of EZH2 in mouse B16-F1 migrating cells assessed as fold change in H3K27me3-buffered regulated Ssb-mRNA expression at 3 uM measured by ChIP-seq analysis relative to control cells"}, "[30]": {"molecular_target": "Histone-lysine N-methyltransferase EZH2 (Mus musculus) (UniProt Q61188)", "assay": "Inhibition of EZH2 in mouse B16-F1 migrating cells assessed as fold change in H3K27me3-dependent regulated Sphk1-mRNA expression at 3 uM measured by ChIP-seq analysis relative to control cells"}}, "note": "Further values from the same series stand in other lists."}
{"smiles": "OC[C@H]1O[C@@H](n2cnc3cc(Cl)c(Cl)cc32)[C@H](O)[C@@H]1O", "values": [{"measurement": "log2FC", "setting": "[1]", "value": 0.72}, {"measurement": "log2FC", "setting": "[2]", "value": 0.53}, {"measurement": "log2FC", "setting": "[3]", "value": 0.38}, {"measurement": "log2FC", "setting": "[4]", "value": -1.06}, {"measurement": "log2FC", "setting": "[5]", "value": 0.39}, {"measurement": "log2FC", "setting": "[6]", "value": -0.48}, {"measurement": "log2FC", "setting": "[7]", "value": 0.45}, {"measurement": "log2FC", "setting": "[8]", "value": 0.52}, {"measurement": "log2FC", "setting": "[9]", "value": -0.75}, {"measurement": "log2FC", "setting": "[10]", "value": -0.46}, {"measurement": "log2FC", "setting": "[11]", "value": -0.46}, {"measurement": "log2FC", "setting": "[12]", "value": -0.86}, {"measurement": "log2FC", "setting": "[13]", "value": -0.91}, {"measurement": "log2FC", "setting": "[14]", "value": -0.73}, {"measurement": "log2FC", "setting": "[15]", "value": -0.66}, {"measurement": "log2FC", "setting": "[16]", "value": 0.56}, {"measurement": "log2FC", "setting": "[17]", "value": -1.11}, {"measurement": "log2FC", "setting": "[18]", "value": -0.79}, {"measurement": "log2FC", "setting": "[19]", "value": 0.49}]}
{"smiles": "CCCc1cc(C)[nH]c(=O)c1CNC(=O)c1cc(-c2ccnc(N3CCN(C)CC3)c2)cc2c1cnn2C(C)C", "values": [{"measurement": "log2FC", "setting": "[20]", "value": 2.18}, {"measurement": "log2FC", "setting": "[21]", "value": -0.49}, {"measurement": "log2FC", "setting": "[22]", "value": 0.71}, {"measurement": "log2FC", "setting": "[23]", "value": 0.42}, {"measurement": "log2FC", "setting": "[24]", "value": 0.42}, {"measurement": "log2FC", "setting": "[25]", "value": 0.39}, {"measurement": "log2FC", "setting": "[26]", "value": -0.39}, {"measurement": "log2FC", "setting": "[27]", "value": 0.46}, {"measurement": "log2FC", "setting": "[28]", "value": 0.7}, {"measurement": "log2FC", "setting": "[29]", "value": -0.38}, {"measurement": "log2FC", "setting": "[30]", "value": 0.33}]}
